Experimental findings from article PMC12413633 are described below.

Amino acid sequences for entries named in this document (tags omitted). A change or cut given only in a name is not applied to a line headed by its entry. Chains listed by the source or under a name are the forms on record and can include a tag or linker.
UniProt O60282: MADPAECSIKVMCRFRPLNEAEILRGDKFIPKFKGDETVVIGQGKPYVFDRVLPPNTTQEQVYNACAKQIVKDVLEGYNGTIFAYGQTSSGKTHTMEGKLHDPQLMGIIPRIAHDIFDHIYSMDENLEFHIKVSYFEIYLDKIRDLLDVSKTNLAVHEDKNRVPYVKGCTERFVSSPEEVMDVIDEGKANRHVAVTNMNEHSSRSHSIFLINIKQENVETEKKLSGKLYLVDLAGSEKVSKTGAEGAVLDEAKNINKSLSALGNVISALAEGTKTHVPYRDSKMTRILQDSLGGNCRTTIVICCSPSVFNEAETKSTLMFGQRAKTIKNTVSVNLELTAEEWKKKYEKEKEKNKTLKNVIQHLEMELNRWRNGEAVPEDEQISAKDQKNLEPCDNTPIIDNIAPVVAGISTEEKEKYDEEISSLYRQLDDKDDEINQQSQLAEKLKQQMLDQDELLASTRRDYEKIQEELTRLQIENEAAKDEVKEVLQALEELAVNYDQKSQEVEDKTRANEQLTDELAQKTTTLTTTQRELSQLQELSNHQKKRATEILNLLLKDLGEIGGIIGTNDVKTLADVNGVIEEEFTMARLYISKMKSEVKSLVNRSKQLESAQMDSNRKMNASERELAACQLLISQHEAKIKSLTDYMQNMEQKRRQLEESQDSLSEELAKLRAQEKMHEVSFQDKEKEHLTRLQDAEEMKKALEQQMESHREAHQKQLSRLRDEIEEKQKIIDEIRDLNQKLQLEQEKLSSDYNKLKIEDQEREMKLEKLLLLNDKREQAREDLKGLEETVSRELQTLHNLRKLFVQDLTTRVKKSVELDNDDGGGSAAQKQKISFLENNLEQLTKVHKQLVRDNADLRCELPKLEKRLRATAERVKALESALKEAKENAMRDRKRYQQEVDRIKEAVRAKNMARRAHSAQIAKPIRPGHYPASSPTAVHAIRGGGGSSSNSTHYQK
human DDK-MAP2B S1782E (P11137-1, form named): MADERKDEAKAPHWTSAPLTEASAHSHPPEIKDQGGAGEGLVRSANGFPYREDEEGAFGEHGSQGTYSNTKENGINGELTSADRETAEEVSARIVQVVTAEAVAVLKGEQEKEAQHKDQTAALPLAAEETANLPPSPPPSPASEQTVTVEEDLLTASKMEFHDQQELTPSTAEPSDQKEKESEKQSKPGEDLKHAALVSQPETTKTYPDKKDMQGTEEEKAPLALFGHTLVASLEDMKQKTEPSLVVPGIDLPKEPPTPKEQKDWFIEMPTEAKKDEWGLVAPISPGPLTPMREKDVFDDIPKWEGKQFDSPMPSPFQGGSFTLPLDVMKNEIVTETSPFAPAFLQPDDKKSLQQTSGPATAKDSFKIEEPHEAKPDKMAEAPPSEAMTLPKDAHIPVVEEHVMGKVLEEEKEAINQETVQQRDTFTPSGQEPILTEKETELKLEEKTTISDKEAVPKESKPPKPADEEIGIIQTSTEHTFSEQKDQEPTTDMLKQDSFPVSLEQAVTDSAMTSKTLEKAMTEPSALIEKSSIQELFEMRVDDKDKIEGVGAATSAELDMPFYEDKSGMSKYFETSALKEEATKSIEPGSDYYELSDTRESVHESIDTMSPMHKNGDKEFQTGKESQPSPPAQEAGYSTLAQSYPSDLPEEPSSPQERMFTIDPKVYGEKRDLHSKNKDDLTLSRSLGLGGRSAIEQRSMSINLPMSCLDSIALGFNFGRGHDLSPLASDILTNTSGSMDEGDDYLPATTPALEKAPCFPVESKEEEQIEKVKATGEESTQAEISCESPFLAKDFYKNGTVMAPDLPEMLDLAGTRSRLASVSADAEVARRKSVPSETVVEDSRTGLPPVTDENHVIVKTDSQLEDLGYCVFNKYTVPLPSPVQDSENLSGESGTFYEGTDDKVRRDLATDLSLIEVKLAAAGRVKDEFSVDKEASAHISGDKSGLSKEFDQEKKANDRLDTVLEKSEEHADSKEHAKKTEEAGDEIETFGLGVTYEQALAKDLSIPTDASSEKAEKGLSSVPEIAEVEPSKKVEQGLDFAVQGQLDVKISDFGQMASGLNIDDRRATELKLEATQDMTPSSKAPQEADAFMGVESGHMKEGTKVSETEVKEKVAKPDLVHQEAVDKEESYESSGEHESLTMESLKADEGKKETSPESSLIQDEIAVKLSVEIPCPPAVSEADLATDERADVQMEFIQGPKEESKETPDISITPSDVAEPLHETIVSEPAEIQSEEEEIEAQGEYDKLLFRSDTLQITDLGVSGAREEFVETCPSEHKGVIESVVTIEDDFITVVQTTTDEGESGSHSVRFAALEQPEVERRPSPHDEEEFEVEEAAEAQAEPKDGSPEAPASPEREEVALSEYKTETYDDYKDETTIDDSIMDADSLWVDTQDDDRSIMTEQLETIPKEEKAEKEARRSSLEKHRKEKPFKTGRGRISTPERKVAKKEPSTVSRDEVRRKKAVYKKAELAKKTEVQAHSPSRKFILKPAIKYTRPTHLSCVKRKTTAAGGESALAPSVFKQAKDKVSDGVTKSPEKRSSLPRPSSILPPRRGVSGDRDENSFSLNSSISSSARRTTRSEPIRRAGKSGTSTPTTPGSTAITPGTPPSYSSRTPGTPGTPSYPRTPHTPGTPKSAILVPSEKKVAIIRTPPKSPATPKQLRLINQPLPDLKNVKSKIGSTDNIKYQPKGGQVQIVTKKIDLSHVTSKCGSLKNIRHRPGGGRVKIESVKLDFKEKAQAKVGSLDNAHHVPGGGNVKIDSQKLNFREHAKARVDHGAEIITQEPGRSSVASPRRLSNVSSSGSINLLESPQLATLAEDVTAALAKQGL

These are yes or no findings as the source states them, for the method shown. Binding seen in cells or lysates may run through a third protein. Some entries that bind do so weakly or less than the wild type. For some of these results: Where a sequence is shown, tags or fusion partners need not be part of it.

What all share (test): co-IP; HEK 293 cells transfected with MAP2B WT or S1782E and a Myc-tagged interactor; lysate in 20 mM Tris-HCl pH 7.5, 150 mM NaCl, 1 % Triton X-100; Myc-antibody magnetic beads; western blot for MAP2 (HM-2) and Myc, densitometry
Test [1] addresses human KIF5C-Myc-DDK protein (human) (UniProt O60282).
Test [2] addresses T1, human KLHL8-Myc-DDK protein (human) (UniProt Q9P2G9).
T1 sequence: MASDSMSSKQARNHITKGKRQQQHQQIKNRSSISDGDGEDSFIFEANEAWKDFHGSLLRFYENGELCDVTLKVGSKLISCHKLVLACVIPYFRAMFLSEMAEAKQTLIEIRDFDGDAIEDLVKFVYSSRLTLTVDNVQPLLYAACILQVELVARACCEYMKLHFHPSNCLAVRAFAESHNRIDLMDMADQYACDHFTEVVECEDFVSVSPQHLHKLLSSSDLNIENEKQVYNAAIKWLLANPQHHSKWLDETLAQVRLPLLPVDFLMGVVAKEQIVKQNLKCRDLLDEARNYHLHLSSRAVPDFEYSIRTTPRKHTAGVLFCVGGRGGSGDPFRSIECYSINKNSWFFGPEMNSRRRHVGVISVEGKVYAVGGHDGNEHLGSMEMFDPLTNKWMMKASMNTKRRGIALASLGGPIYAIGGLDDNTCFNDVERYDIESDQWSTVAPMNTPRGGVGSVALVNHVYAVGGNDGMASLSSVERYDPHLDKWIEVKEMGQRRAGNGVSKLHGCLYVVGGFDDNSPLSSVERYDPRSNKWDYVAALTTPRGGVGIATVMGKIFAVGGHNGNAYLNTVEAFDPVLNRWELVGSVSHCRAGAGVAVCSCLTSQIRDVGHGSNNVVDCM

Test [3] deals with T2, human PPM1L-Myc protein (human) (UniProt Q5SGD2).
T2 sequence: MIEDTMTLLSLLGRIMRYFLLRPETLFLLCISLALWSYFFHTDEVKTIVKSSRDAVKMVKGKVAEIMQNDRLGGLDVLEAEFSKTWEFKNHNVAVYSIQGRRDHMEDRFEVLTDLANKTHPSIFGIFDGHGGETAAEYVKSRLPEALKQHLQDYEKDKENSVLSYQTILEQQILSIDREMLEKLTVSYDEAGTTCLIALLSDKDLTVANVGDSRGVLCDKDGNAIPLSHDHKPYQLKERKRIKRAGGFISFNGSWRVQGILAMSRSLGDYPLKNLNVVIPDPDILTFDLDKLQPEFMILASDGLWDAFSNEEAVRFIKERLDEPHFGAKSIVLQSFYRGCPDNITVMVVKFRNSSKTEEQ

In the case of “human DDK-MAP2B S1782E (from UniProt P11137-1 1-1827)”, the binding entry in test [1], in test [2] and in test [3] was “binds” in each case.
“human wild type DDK-MAP2B (from UniProt P11137-1 1-1827)”: in test [1], the binding result is “binds”.
